# In PubChem BioAssay AID504444 (National Center for Advancing Translational Sciences (NCATS), 2011):
# Hit rate of the full screen: of about 360,000 compounds, about 7,500 (2.1%) were called active. The inconclusive results got no clear call from the source; some entries with a clear call stand among them for comparison. The call rests on the fitted dose curve; in most records, active means well fitted inhibition curve with a large enough effect; inconclusive means small, poorly fitted or top-dose-only effect, or effect the other way; inactive means flat fitted curve, though single readings scatter. Potencies of inconclusive entries are doubtful fits and often do not repeat. Where a structure was tested more than once in an assay, its records may differ in their call.
# Test: Nrf2 qHTS screen for inhibitors; further: nearly all actives have a fitted effect of over 60% in size
# Conditions: A549 ARE-Fluc reporter, luciferase luminescence, 18-24 h; activity change, negative = inhibition: at 46 µM (top of the series)
# How it was run: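 Cells were seeded and rested 2 h, then exposed to compounds for 18-24 h. CellTiter-Fluor was read first as a viability measure. BugLite was added 15 min before the final luminescent read of ARE-luciferase activity in A549 cells.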
# On the % scale 0 is the no-effect control and ±100 the full control effect; potency means the concentration at half of the fitted maximal effect.
SMILES,Potency,"activity change, negative = inhibition"
Nc1nonc1-c1noc(-c2ccccc2Br)n1,"inconclusive: 32.6 µM [activator, single point]",–
Cc1ccc(NC(=O)CSc2nnnn2-c2ccc3c(c2)OCO3)cc1C,"inconclusive: 29.1 µM [falling, single point]",–
COc1ccc(/C=C2\Sc3ccc(C(=O)NCc4cccnc4)cc3N(C)C2=O)cc1OC,"inconclusive: 23.1 µM [falling, single point]",–
COc1ccc(N(C)S(=O)(=O)c2cccc(C(=O)Nc3nc(C)c(C(C)=O)s3)c2)cc1,–,inactive: -23.2%
O=C(Nc1ccc(C(F)(F)F)cc1)c1ccccc1,"inconclusive: 7.31 µM [activator, partial curve]",–
COc1ccc(S(=O)(=O)N2CCCCCC2)cc1C(=O)N(C)CC(=O)Nc1ccc(F)cc1,–,inactive: -15.8%
CCOC(=O)Cc1csc(NC(=O)c2cccc(OC)c2)n1,–,inactive: 2.49%
COc1ccc(C(=O)NC(=S)NNC(=O)COc2ccccc2)cc1,"inconclusive: 14.6 µM [falling, partial curve, poor fit]",–
COc1ccc(-c2[nH]c(-c3cccc(OC)c3)nc2SCC(=O)Nc2ccc3c(c2)OCO3)cc1,"inconclusive: 20.6 µM [falling, single point]",–
C[C@@H]1C(=O)OC[C@H]1NC(=O)OCc1ccccc1,"inconclusive: 5.8 µM [falling, partial curve, poor fit]",–
O=C(/C=C/c1ccccc1)N1CCC(c2ccccc2)C1 (centres undefined),"inconclusive: 18.4 µM [activator, partial curve]",–
O=S(=O)(c1ccc(NC(=S)N2CCN(c3ccccc3F)CC2)cc1)N1CCOCC1,active: 13 µM,–
O=C(Nc1ccccc1)O/N=C/c1ccncc1,"inconclusive: 8.2 µM [activator, partial curve, poor fit]",–
Cc1cc(NC(=O)CSc2cc(Cl)ccc2Cl)n(-c2ccccc2)n1,–,inactive: -19.6%
NC(=O)C1(Nc2ccc(-c3ccccc3)cc2)CCCC1,–,inactive: 8.22%
S=c1[nH]nc(C2CCCCC2)n1/N=C/c1ccccc1Cl,"inconclusive: 7.31 µM [activator, partial curve, poor fit]",–
O=C(CCNC(=O)c1ccccc1Cl)Nc1nc2ccc(F)cc2s1,"inconclusive: 20.6 µM [activator, partial curve]",–
C=CCNC(=O)c1onc(CSc2cc(C)cc(C)c2)c1C(=O)O,"inconclusive: 20.6 µM [activator, single point]",–
N#Cc1c(/N=C/c2ccc(Br)s2)sc2c1CCC2,"inconclusive: 4.11 µM [activator, partial curve, poor fit]",–
COc1cc(S(=O)(=O)NCCOC23CC4CC(CC(C4)C2)C3)c(OC)cc1Cl,active: 20.6 µM,–
Cc1ccc(CNC(=O)CC2(CC3=NS(=O)(=O)c4ccccc4N3)CCCC2)cc1,"inconclusive: 29.1 µM [falling, single point]",–
Cc1cc(C)cc(OCC(=O)Nc2nc3c(s2)CC(C(C)(C)C)CC3)c1 (centres undefined),"inconclusive: 29.1 µM [falling, single point]",–

# Gathered by group: the compounds so far containing an NH in an aromatic ring
SMILES,Potency,"activity change, negative = inhibition"
COc1ccc(-c2[nH]c(-c3cccc(OC)c3)nc2SCC(=O)Nc2ccc3c(c2)OCO3)cc1,"inconclusive: 20.6 µM [falling, single point]",–
S=c1[nH]nc(C2CCCCC2)n1/N=C/c1ccccc1Cl,"inconclusive: 7.31 µM [activator, partial curve, poor fit]",–

# (next part)

SMILES,Potency,"activity change, negative = inhibition"
Cc1ccc(C)c(NC(=S)c2nc3ccccc3s2)c1,"inconclusive: 14.6 µM [activator, partial curve]",–
CCc1noc(C)c1C(=O)Nc1nc(-c2cc(OC)ccc2OC)cs1,–,inactive: -11.4%
Cc1cc(C)n(-c2cc(N3CCN(C(=O)c4cccc(F)c4)CC3)ccc2[N+](=O)[O-])n1,–,inactive: -23.1%
CC(C)CNS(=O)(=O)c1ccc(CCC(=O)N2CCN(Cc3ccc4c(c3)OCO4)CC2)cc1,"inconclusive: 9.2 µM [falling, partial curve]",–
O=C(c1ccc(N2CCOCC2)cc1)c1cccs1,"inconclusive: 1.16 µM [activator, partial curve, poor fit]",–
COc1cc(OC)cc(OC(=O)C2CCN(C(=O)c3ccc(F)cc3)CC2)c1,"inconclusive: 32.6 µM [activator, partial curve, poor fit]",–
Cc1ccc(NC(=O)c2ccc3nccnc3c2)c(C)c1,"inconclusive: 9.2 µM [activator, partial curve]",–
CC(/C=N/Nc1ncc(C)c(=O)[nH]1)=C\c1ccccc1,–,inactive: 10.2%
O=[N+]([O-])c1ccc(/C=N/N2CCCCC2)cc1,"inconclusive: 11.6 µM [activator, partial curve]",–
COc1ccc(-n2cnnc2SCc2ncc(-c3ccccc3)o2)cc1,"inconclusive: 4.11 µM [falling, partial curve]",–
COc1ccc(NC(=O)c2cccc(NC(=O)c3ccco3)c2)c(OC)c1,"inconclusive: 13 µM [falling, partial curve, poor fit]",–
CCc1nnc(NC(=O)c2nc(S(=O)(=O)Cc3ccc(C)cc3)ncc2Cl)s1,active: 20.6 µM,–
C=CC[N+](C)(C)CCCNC(=O)/C=N/O,"inconclusive: 0.461 µM [activator, full curve, poor fit]",–
CCOc1ccccc1N1CCN(c2ncnc3scc(-c4ccc(OC)cc4)c23)CC1,"inconclusive: 16.4 µM [falling, single point]",–
CN(Cc1ccccc1)C(=S)NC(=O)c1ccc(-c2ccccc2)cc1,"inconclusive: 20.6 µM [falling, partial curve, poor fit]",–
COc1cc(C2C(C#N)=C(N)N(Nc3ccccc3)C3=C2C(=O)CC(C)(C)C3)ccc1OCc1ccccc1 (centres undefined),active: 23.1 µM,–
COc1ccc(-c2nn(-c3ccccc3)cc2N)cc1,"inconclusive: 16.4 µM [activator, partial curve]",–
O=C(Nc1cccc(/C=C/c2ccccn2)c1)c1ccc(-n2cncn2)cc1,–,inactive: -6.15%
Cc1cc(C(F)(F)F)n2nc(-c3ccc(Br)cc3)cc2n1,–,inactive: 18.2%
COc1ccccc1N1CCN(C(=O)c2cccc(S(=O)(=O)N3CCCCCC3)c2)CC1,"inconclusive: 23.1 µM [falling, single point]",–
Cc1ccc2c(CC(=O)Nc3sccc3C(N)=O)coc2c1,"inconclusive: 6.51 µM [activator, single point]",–
O=C(Nc1nccs1)c1ccc(-c2ccc([N+](=O)[O-])cc2)o1,"inconclusive: 9.2 µM [activator, partial curve]",–
